Measured values from patent US20180194762A1 (Pharmacyclics LLC, priority 2017, published 2018).
Structures were worked out from names or drawings and are uncertain.

Sequences of proteins named here, by UniProt entry; tags and fusion partners are left off.
UniProt P51813, whole entry: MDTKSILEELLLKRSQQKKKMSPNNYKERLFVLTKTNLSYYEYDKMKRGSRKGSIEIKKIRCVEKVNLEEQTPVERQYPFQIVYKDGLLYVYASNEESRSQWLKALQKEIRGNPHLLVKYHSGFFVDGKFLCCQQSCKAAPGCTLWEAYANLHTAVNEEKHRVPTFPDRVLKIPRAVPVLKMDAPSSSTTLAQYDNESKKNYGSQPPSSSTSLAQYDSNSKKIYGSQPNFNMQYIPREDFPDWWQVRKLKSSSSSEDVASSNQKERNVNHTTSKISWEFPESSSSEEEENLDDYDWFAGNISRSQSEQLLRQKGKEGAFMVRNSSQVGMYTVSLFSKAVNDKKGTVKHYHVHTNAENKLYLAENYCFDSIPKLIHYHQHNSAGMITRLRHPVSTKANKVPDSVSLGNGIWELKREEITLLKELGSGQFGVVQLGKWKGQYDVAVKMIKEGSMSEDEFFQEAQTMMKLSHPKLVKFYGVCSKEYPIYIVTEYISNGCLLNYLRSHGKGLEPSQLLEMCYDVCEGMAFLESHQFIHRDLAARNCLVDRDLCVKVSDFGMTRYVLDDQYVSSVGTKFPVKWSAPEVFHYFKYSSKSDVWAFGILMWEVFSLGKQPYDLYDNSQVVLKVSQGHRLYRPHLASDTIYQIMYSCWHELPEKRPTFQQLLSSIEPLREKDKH
UniProt P42680, whole entry: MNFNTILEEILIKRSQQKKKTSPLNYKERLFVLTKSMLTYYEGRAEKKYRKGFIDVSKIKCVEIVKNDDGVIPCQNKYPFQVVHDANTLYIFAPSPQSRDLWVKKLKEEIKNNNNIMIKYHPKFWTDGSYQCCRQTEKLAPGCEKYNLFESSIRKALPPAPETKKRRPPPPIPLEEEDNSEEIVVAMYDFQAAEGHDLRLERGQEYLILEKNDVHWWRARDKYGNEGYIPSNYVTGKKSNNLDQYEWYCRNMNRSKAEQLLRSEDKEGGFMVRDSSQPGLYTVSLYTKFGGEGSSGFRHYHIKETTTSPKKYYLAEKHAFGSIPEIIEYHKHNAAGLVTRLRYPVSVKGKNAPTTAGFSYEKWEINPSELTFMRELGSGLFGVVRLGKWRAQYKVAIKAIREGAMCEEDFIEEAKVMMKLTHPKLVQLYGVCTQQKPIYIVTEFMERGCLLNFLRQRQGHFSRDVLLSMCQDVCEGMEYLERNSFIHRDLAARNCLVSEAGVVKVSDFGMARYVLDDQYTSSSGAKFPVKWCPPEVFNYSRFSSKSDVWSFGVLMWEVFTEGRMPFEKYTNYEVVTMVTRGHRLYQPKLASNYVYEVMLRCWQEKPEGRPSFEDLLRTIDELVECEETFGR
UniProt Q06187, whole entry: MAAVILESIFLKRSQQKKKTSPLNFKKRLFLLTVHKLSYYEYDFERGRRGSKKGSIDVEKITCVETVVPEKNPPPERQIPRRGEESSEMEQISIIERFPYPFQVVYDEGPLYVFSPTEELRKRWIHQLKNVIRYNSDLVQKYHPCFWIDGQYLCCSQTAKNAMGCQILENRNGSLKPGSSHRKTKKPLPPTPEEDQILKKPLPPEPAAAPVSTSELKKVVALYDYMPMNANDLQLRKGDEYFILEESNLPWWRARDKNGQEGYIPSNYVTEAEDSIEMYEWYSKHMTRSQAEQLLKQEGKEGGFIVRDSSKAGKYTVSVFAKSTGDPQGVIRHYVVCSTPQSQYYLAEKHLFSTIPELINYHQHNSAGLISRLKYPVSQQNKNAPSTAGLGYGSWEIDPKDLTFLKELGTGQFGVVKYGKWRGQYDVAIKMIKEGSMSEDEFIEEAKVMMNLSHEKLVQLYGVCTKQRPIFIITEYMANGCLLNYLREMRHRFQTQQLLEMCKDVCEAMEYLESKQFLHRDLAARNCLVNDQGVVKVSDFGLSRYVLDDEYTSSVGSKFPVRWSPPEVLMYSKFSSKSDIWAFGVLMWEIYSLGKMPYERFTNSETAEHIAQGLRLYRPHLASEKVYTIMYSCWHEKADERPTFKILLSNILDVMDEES

Experiments:
Assay type in all cases: biochemical
panel of kinases = panel of kinases (Homo sapiens, UniProt P51813); test: Inhibition of a panel of kinases (in vitro HotSpot kinase assay, 33P-ATP, 1 μM ATP), other kinases; conditions: read-out: BMX-WT IC50, BMX wild-type
Experimental: (§1) Example 63: Inhibition of a Panel of Kinases The degree of inhibition of a panel of kinases is determined using the in vitro HotSpot kinase assay (purified enzymes, ^33P-ATP, an appropriate substrate and 1 μM ATP).

TEC = TEC (Homo sapiens, UniProt P42680); test: Inhibition of a panel of kinases (in vitro HotSpot kinase assay, 33P-ATP, 1 μM ATP); conditions: read-out: TEC IC50
Experimental: as §1

Btk = Btk (Homo sapiens, UniProt Q06187); test: Btk in vitro inhibitory activity (one of Method A TR-FRET, Method B electrophoretic mobility shift, Method C radiometric filter binding); conditions: read-out: Btk-WT IC50; wild-type Btk
Experimental: Example 62a: Btk In Vitro Inhibitory Activity (Method A)
Btk kinase activity is determined using a time-resolved fluorescence resonance energy transfer (TR-FRET) methodology. Measurements are performed in a reaction volume of 50 μL using 96-well assay plates. Kinase enzyme, inhibitor, ATP (at the Km for the kinase), and 1 μM peptide substrate (Biotin-AVLESEEELYSSARQ-NH2) are incubated in a reaction buffer composed of 20 mM Tris, 50 mM NaCl, MgCl2 (5-25 mM depending on the kinase), MnCl2 (0-10 mM), 1 mM DTT, 0.1 mM EDTA, 0.01% bovine serum albumin, 0.005% Tween-20, and 10% DMSO at pH 7.4 for one hour. […] The TR-FRET signal is measured on a multimode plate reader with an excitation wavelength (λEx) of 330 nm and detection wavelengths (λEm) of 615 and 665 nm. Activity is determined by the ratio of the fluorescence at 665 nm to that at 615 nm. For each compound, enzyme activity is measured at various concentrations of compound. Negative control reactions are performed in the absence of inhibitor in replicates of six, and two no-enzyme controls are used to determine baseline fluorescence levels. […]
Kinase activity is measured in vitro using electrophoretic mobility shift assay. […] The terminated reactions are analyzed using a 12 channel LabChip® 3000 microfluidic detection instrument (Caliper Life Sciences). […] As substrate and product peptides are separated, two peaks of fluorescence are observed. […]

Compound	IC50 (panel of kinases) [nM]	IC50 (TEC) [nM]	IC50 (Btk) [nM]
C=CC(=O)N1CC[C@@H](Nc2n[nH]c3nccc(-c4ccc(C(=O)NCc5noc(C(C)(C)C)n5)c(F)c4)c23)C1	346	4370	857
N[C@@H]1CCN(c2n[nH]c3nccc(-c4ccc(CNC(=O)c5nc6ccccc6o5)c(F)c4)c23)C1	576	1610	98.6
